# Test results reported in PubChem BioAssay AID1487 (National Center for Advancing Translational Sciences (NCATS), 2009).
# Values joined by “and” are separate entries in the source; they are usually repeats but may differ in a detail not shown here. Identical values can stand only once. The list shows a part of the results. These are further read-outs of the screen, such as a control signal, another cell line or another target. No call is given for them. The list favours compounds with an active or inconclusive main result. The note in brackets gives the kind of curve behind each potency; many fits are weak.
# Experiment: qHTS Assay for Modulators of Lamin A Splicing
# Conditions: HeLa LMNA splicing GFP/RFP minigene ratio, 48 h
# Procedure, shortened: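 Read-out is the ratio of GFP to DsRed2 object intensity, acquired by 488 nm laser-scanning cytometry on HeLa lamin A-EGFP minigene reporter cells. Compound incubation 48 hrs at 37 °C in Opti-MEM with 2% FBS; DMSO 0.5% final.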
# [1] = measured here: GFP splicing reporter channel
# [2] = measured here: RFP viability control channel
Structure (SMILES),AC50 [1],AC50 [2]
O=C1NC(=O)N(c2ccccc2)C(=O)/C1=C\C=C\c1ccccc1,"0.891 µM [falling, partial curve, poor fit]","5.01 µM [falling, partial curve, poor fit]"
C[C@H]1CC[C@@H]2[C@@H](C)[C@H]3[C@H](C[C@H]4[C@@H]5CC=C6CC(O[C@@H]7O[C@H](CO)[C@H](O)[C@H](O[C@@H]8O[C@H](CO)[C@@H](O)[C@H](O)[C@H]8O)[C@H]7O[C@H]7O[C@@H](C)[C@H](O)[C@@H](O)[C@H]7O)CC[C@]6(C)[C@H]5CC[C@]34C)N2C1 (stereo partly specified),"14.1 µM [falling, partial curve]","15.8 µM [falling, partial curve]"
O=C1C=C2C=C[C@H]3C[C@]2(O1)[C@@H]1CCCCN13,,"25.1 µM [rising, single point]"
O=[N+]([O-])c1ccc(NCc2ccccc2)c2nonc12,"10 µM [rising, partial curve]",
Cc1ccc(OCC(=O)N2CCN(Cc3ccc4c(c3)OCO4)CC2)cc1C,"2.82 µM [falling, partial curve, poor fit]","5.01 µM [falling, partial curve]"
COP(=S)(OC)SCn1nnc2ccccc2c1=O,"31.6 µM [falling, single point]","35.5 µM [falling, single point]"
COc1ccc(OC)c(N2C(=O)NC(=O)/C(=C/c3ccc([N+](=O)[O-])s3)C2=O)c1,,"5.62 µM [rising, single point]"
CC(C)c1c(CN(C)[C@@H](C)Cc2ccccc2)n(C)n(-c2ccccc2)c1=O,"7.08 µM [falling, partial curve, poor fit]","8.91 µM [falling, single point]"
CSc1ccccc1C(=O)C1CCCN(Cc2ccncc2)C1 (stereo unspecified),,"0.141 µM [falling, full curve, poor fit]"
CC(C)N1CCN(Cc2cccc3c2OCO3)CC1CCO (stereo unspecified),"1.12 µM [falling, full curve]","0.447 µM [falling, full curve, poor fit]"
Cc1nnc(NC(=O)c2cccn(Cc3cccc([N+](=O)[O-])c3)c2=O)s1,"0.562 µM [falling, full curve, poor fit]","0.562 µM [falling, full curve]"
CCn1c(=O)cc(SCC(=O)N2CCC3(CC2)OCCO3)c2ccccc21,,"28.2 µM [rising, single point]"
Cc1ccc(Cn2nnnc2CN2CCC(n3nnc4cc(C)ccc43)CC2)cc1,,"14.1 µM [rising, single point]"
C[C@H]1C[C@@H](C)C(=O)[C@@H]([C@H](O)CC2CC(=O)NC(=O)C2)C1,"1 µM [falling, partial curve]","1 µM [falling, partial curve]"
Cc1c(C(=O)NCCC2=CCCCC2)oc2ccc(S(=O)(=O)N3CCC4(CC3)OCCO4)cc12,"11.2 µM [rising, single point]","12.6 µM [rising, partial curve]"
COc1cc2c(C(=O)N3CCN(C)CC3)c(C)n(C)c2cc1Br,,"0.00447 µM [falling, full curve, poor fit]"
NC(N)=NC(=O)c1nc(Cl)c(N)nc1N,"1.41 µM [falling, partial curve, poor fit] and 31.6 nM [falling, full curve] and 4.47 µM [rising, full curve]",
S=C(S)N1CCCC1,"1 µM [falling, full curve]","0.631 µM [falling, full curve]"
O=C(Nc1cccc(Cl)c1)c1cnc2sc(N3CCCC3)nn2c1=O,,"8.91 µM [rising, partial curve]"
O=C(O)c1ccccc1-c1c2cc(Br)c(=O)cc-2oc2[c]([Hg])c(O)c(Br)cc12,"2.51 µM [falling, full curve]","2.82 µM [falling, full curve]"
Cc1noc(C(=O)Nc2sc3c(c2C#N)CCC3)c1Cl,,"7.94 µM [rising, partial curve]"
Cc1cc(OC(=O)c2ccco2)c2c3c(c(=O)oc2c1)CCCC3,,"3.98 µM [rising, full curve, poor fit]"
CN1C(=O)C(=Cc2ccccc2OCc2ccccc2Cl)C(=O)N(C)C1=O,,"6.31 µM [rising, partial curve]"
CC[C@@H]1C(=O)OC[C@@H]1Cc1cncn1C,"15.8 µM [rising, partial curve, poor fit] and 5.01 nM [falling, full curve, poor fit] and 35.5 µM [rising, single point]","5.01 nM [falling, full curve, poor fit] and 35.5 µM [rising, single point]"
N[C@@H](Cn1oc(=O)[nH]c1=O)C(=O)O,"3.16 µM [rising, single point]",

Structure (SMILES),AC50 [1],AC50 [2]
COc1cccc(C2CC3C(=O)C=CC2N3Cc2ccccc2)c1 (stereo unspecified),"0.0891 µM [rising, full curve, poor fit]","0.0891 µM [rising, full curve, poor fit]"
CNC1=CN(O)C(c2ccccc2)=c2cc(Cl)ccc2=N1,"35.5 µM [falling, single point]","15.8 µM [falling, single point]"
Cc1ccc(-n2c(O)c(/C=N/c3ncc(Br)cc3Br)c(=O)[nH]c2=O)cc1,"1.78 µM [falling, partial curve]",
COC(C)(C)CCCC(C)C/C=C/C(C)=C/C(=O)OC(C)C (stereo unspecified),"10 µM [falling, single point]","35.5 µM [falling, single point]"
COc1ccc(NC(=O)c2ccc(COCC(F)(F)C(F)F)cc2)cc1,,"35.5 µM [rising, single point]"
O=C(Cc1ccc(Br)cc1)N1CCN(Cc2ccccc2)CC1,,"3.55 µM [rising, single point]"
Cn1c(=O)c2c(ncn2CC(=O)Nc2nc(-c3ccccc3Cl)cs2)n(C)c1=O,,"12.6 µM [rising, partial curve]"
CCC12CN3CCN(CC(C3)/C1=N\O)C2,,"35.5 µM [falling, partial curve, poor fit]"
COc1cc(/C=C(/C)[N+](=O)[O-])ccc1OCc1ccccc1Cl,"28.2 µM [falling, single point]","3.98 µM [falling, full curve]"
CC(C)CCn1c(=O)c(C(=O)Nc2ccccc2S(N)(=O)=O)c(O)c2ccccc21,"10 µM [rising, partial curve]","7.94 µM [rising, partial curve]"
COc1c2c(c(CC=C(C)C)c3oc(=O)c(-c4ccc(O)cc4)c(O)c13)OC(C)(C)C=C2,"22.4 µM [rising, single point]",
CCCN(CCC)[C@@H]1CCc2ccc(O)cc2C1,"5.62 µM [falling, partial curve, poor fit]","6.31 µM [falling, partial curve, poor fit]"
[O]=[Cd],"12.6 µM [rising, single point]",
Clc1cnc(Oc2ccc(Oc3ncc(Cl)cc3Cl)cc2)c(Cl)c1,,"4.47 µM [falling, partial curve, poor fit]"
CNCCc1ccc(O)c(O)c1,"1.26 µM [falling, full curve]","12.6 µM [falling, partial curve, poor fit]"
COC1C(O)C(C)O[C@@H](OC2CC[C@@]3(C)C4CC[C@]5(C)C(C6=CC(=O)OC6)CC[C@@]5(O)C4CC[C@@H]3C2)C1O (stereo partly specified),"0.1 µM [falling, full curve]","0.0708 µM [falling, full curve]"
C=C1CC2C(CC[C@]3(C)C(=O)CCC23)[C@]2(C)C=CC(=O)C=C12 (stereo partly specified),"0.00398 µM [falling, full curve, poor fit]","14.1 µM [rising, single point]"
CCOC(=O)C(=CNc1ccc(C(O)(C(=O)OCC)C(F)(F)F)cc1C)C(=O)OCC (stereo unspecified),"15.8 µM [rising, single point]","14.1 µM [rising, single point]"
O=C(Cn1ncc2c3ccccc3n(Cc3cccc(Cl)c3)c2c1=O)N1CCC2(CC1)OCCO2,,"12.6 µM [rising, partial curve]"
O=c1cccc2n1CC1CC2CN(Cc2c(F)cccc2Cl)C1 (stereo unspecified),,"6.31 µM [falling, single point]"
COc1ccc2c3c1OC1C[C@@H](O)C=C[C@@]31CCN(C)C2 (stereo partly specified),"0.794 µM [falling, full curve]","1.58 µM [falling, single point]"
O=C(COc1ccc(Cl)cc1Cl)N1CCN(C/C=C/c2ccccc2)CC1,"20 µM [rising, partial curve]","17.8 µM [rising, single point]"
CSc1nn(-c2ccc(C(=O)OCC(=O)NC(=O)NC(C)C)cc2)c(=S)s1,,"17.8 µM [rising, partial curve]"
O=C(CCn1c(=O)oc2ccccc21)N1CCN(C(c2ccccc2)c2ccccc2)CC1,"20 µM [rising, single point]","35.5 µM [rising, single point]"
CCC(C)C(=O)c1c(O)c(C)c2oc3c(C)c(O)c(C(=O)C(C)CC)c(O)c3c2c1O (stereo unspecified),"7.08 µM [falling, partial curve, poor fit]","1.41 µM [rising, full curve, poor fit]"
